Laboratory results taken from US20250353926A1.
Results are given in words; binding and its absence hold for the method and conditions named. Some binding calls cover weakened binding; strength is not graded here. One block for each binder: values may come before it.

By UniProt entry, the sequences of proteins in these tests, tags left out. Where a name states a change or a piece, a line headed by the entry shows the natural chain unless it says otherwise. Residues count along the entry.
UniProt Q04609: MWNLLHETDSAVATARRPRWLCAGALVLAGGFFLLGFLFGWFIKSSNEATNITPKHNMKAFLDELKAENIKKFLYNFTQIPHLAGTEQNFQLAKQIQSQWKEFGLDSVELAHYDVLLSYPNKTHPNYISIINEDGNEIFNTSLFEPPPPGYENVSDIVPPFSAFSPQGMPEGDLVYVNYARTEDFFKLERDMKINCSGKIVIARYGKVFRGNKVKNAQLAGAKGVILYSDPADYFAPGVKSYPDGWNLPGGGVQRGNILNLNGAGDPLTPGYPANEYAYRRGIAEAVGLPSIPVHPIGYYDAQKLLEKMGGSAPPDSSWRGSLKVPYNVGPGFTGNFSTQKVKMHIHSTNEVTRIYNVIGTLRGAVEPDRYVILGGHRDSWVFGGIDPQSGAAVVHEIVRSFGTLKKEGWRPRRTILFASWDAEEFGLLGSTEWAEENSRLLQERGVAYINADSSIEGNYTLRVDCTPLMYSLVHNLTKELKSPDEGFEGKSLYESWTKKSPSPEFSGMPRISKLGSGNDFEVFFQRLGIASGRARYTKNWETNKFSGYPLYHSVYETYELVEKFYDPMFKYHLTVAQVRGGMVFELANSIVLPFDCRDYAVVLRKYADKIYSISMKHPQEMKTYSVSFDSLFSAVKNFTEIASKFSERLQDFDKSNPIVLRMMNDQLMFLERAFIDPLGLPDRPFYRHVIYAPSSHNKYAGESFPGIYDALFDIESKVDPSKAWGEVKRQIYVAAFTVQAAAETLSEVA
immobilized recombinant human PSMA (BLI of Example 9): residues 44-750 of Q04609

Tests used:
[1] = molecular target: immobilized recombinant human PSMA (BLI of Example 9) (human) (UniProt Q04609); test: BLI, immobilized recombinant human PSMA
[2] = molecular target: PSMA expressed on target cells (PC3pip cells, high density; 22Rv1 cells, low density) (UniProt Q04609); test: inferred from T-cell luciferase reporter assay, PC3pip cells

binding [1]: binds
binding [2]: binds
B1: C33 (bispecific antibody)
chain: QVQLQESGGGSVEAGGSLRLSCARSGWPYSTYSMNWFRQAPGKEREAVAGISSTMSGIIFAESKAGQFTISQDNAKNTVYLQMNNLKPEDTAIYYCAARRYFSLSSSSDDFDYWGQGTQVTVSSGGGGSGGGGSGGGGSGGGGSEVQLVESGGGLVQPGGSLRLSCVASGDVHKINFLGWYRQAPGKEREKVAHISIGDQTDYADSAKGRFTISRDESKNMVYLQMNSLKPEDTAVYFCRAFSRIYPYDYWGQGTLVTVSSAAAYPYDVPDYGSSPSTPPTPSPSTPPHHHHHH

binding [1]: binds
B2: C32 (bispecific antibody)
chain: QVQLQESGGGSVEAGGSLRLSCARSGWPYSTYSMNWFRQAPGKEREAVAGISSTMSGIIFAESKAGQFTISQDNAKNTVYLQMNNLKPEDTAIYYCAARRYFSLSSSSDDFDYWGQGTQVTVSSGGGGSGGGGSGGGGSGGGGSEVQLVESGGGLVQPGGSLRLSCAASGDIYKSFDMGWYRQAPGKQRDLVAVIGSRGNNRGRTNYADSVKGRFTISRDGTGNTVYLLMNKLRPEDTAIYYCNTAPLVAGRPWGRGTLVTVSSAAAYPYDVPDYGSSPSTPPTPSPSTPPHHHHHH
